Test results reported in patent publication US7541430 (dated 2009).
Positions of bridges follow the written chain, without caps; N, C: chain ends. Non-standard residues stand in square brackets, D forms with d. *: point of attachment. Palmitoyl = CCCCCCCCCCCCCCCC(=O)*; Hyp = O=C(O)[C@@H]1C[C@@H](O)CN1; Nle = CCCC[C@H](N)C(=O)O

Test: general procedure: Fmoc solid-phase peptide synthesis; Rink resin (Novabiochem), 0.51 mmol/g; Fmoc-Rink resin 0.47 mmol/g; HBTU
Settings: whole synthesis, hydrochloride

With “Palmitoyl-GSQHS[Nle]E[Hyp][dF]RWK-NH2 (lactam 7-12)” the “final HPLC purity” value (UV 214 and 254 nm, scale of the general procedure 0.25 mmol, approximately 0.40 mmol) was 100%, the isolated mass was 99.4 mg and the isolated yield (scale of the general procedure 0.25 mmol, approximately 0.40 mmol) was 14%.
